From paper PMC7229167, “Atypical chemokine receptor ACKR2-V41A has decreased CCL2 binding, scavenging, and activation, supporting sustained inflammation and increased Alzheimer’s disease risk” (Scientific Reports, 2020)
Numbering of substitutions follows the chain as printed. Results are given in words; binding and its absence hold for the method and conditions named.

Sequences of proteins named here, by UniProt entry; tags and fusion partners are left off. Residues count along the entry.
UniProt Q99731, residues 22-98: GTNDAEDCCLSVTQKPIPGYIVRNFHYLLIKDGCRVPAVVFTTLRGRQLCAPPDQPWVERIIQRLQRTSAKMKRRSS

Key:
[1] = molecular target: T1, Atypical chemokine receptor 2 variant V41A (ACKR2-V41A; rs2228467) (human) (UniProt O00590); experiment: flow cytometry on cells; direct binding: AF647-conjugated chemokine incubated with transfected CHO-k1 cells at 37 °C for 45 minutes, two washes, BD Accuri; percent of chemokine-positive cells normalised to percent of ACKR2-positive cells; titration with non-linear analysis for Kd; only the binder purified
T1 sequence: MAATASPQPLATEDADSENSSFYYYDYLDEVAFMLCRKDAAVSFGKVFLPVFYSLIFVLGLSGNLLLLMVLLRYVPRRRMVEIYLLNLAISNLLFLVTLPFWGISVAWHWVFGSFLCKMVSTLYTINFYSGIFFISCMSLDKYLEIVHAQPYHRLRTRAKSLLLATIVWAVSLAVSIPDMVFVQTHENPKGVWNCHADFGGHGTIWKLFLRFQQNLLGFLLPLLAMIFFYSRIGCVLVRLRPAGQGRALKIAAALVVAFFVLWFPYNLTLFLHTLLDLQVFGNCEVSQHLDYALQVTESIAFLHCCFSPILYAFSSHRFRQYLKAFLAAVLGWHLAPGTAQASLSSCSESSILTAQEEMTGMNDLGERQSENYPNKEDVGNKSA

[2] = molecular target: T2, Atypical chemokine receptor 2, wild type (ACKR2-WT) (human) (UniProt O00590); experiment: as above
T2 sequence: T1 sequence with A41V

For “AF647-conjugated chemokine ligand 19 (CCL19-AF647) (from UniProt Q99731 22-98)”, the binding [1] was “no binding” and the binding [2] was “no binding”.
